{
  "source": "PubChem BioAssay AID540303",
  "about": "(National Center for Advancing Translational Sciences (NCATS), 2011)",
  "note": "Screen size: about 330,000 compounds; about 1,000 (0.3%) were called active. Inconclusive means that the source gave no clear call. Such entries were picked first, then a sample of the others. Calls come from the whole dose curve; as a rule, active = well fitted inhibition curve with a large enough effect; inconclusive = small, poorly fitted or top-dose-only effect; inactive = no such curve, though single readings can be large or run the other way; tested in mouse RAW 264.7 cells. Potencies beside an inconclusive call are fits to weak or partial responses and may not hold up. Potency is the fitted concentration of half-maximal effect.",
  "data": [
    {"test": "qHTS for Inhibitors of Cell Surface uPA Generation; note: nearly all actives have a fitted effect of over 55% in size", "conditions": "cell surface uPA generation assay; series mostly up to 38.3 µM", "summary_of_the_method": "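RAW 264.7, 4000 cells/well, o/n 37 C; cpd 1:5 dilution, up to 38.3 uM final; 24 h 37 C/5% CO2 with reagent; ATP-Lite lum. High ATP = LF entry blocked.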", "values": [
      {"smiles": "Oc1ccc(N=Nc2ccc3c(c2)OCCO3)c(O)c1", "Potency": "inconclusive: 1.58 µM [inhibitor, partial curve]"},
      {"smiles": "CCCC[n+]1ccn(C2=C([O-])c3ccccc3C(=O)/C2=N\\S(=O)(=O)c2ccc(Cl)cc2)c1", "Potency": "inconclusive: 31.6 µM [inhibitor, partial curve, poor fit]"},
      {"smiles": "O=[N+]([O-])c1c(Nc2ccc(O)cc2)cc(Cl)c2nonc12", "Potency": "inconclusive: 3.16 µM [inhibitor, partial curve, poor fit]"},
      {"smiles": "Cc1cc(C)n(/N=C/c2ccccc2O)c(=O)c1", "Potency": "inactive"},
      {"smiles": "CC(/C=N/NC(=O)c1n[nH]c2c1CCC2)=C\\c1ccccc1", "Potency": "inactive"},
      {"smiles": "CCCCN(CCCC)CCNC(=O)c1cn(CC)c2ccc(S(=O)(=O)N(C)C3CCCCC3)cc2c1=O", "Potency": "inconclusive: 0.01 µM [inhibitor, full curve, poor fit]"},
      {"smiles": "C[C@H](NCc1c[nH]c2ccccc12)c1ccccc1", "Potency": "inconclusive: 7.94 µM [inhibitor, single point]"},
      {"smiles": "CC(C)CC(=O)/C(=C\\c1ccc(Cl)cc1Cl)n1cncn1", "Potency": "active: 7.08 µM"},
      {"smiles": "Cc1ccc(N2C(=O)CC(Sc3cccs3)C2=O)cc1", "note": "(configuration not stated)", "Potency": "inconclusive: 8.91 µM [inhibitor, partial curve, poor fit]"},
      {"smiles": "COC(=O)/C=C1\\S/C(=N/NC(=O)c2ccccc2)NC1=O", "Potency": "inactive"},
      {"smiles": "COc1ccc(-c2cc3cc4c(cc3cn2)OCO4)cc1", "Potency": "inconclusive: 7.94 µM [inhibitor, single point]"},
      {"smiles": "S=c1[nH]nc(-c2ccco2)n1/N=C/C(Cl)=C/c1ccccc1", "Potency": "inactive"},
      {"smiles": "Cn1cnc([N+](=O)[O-])c1Sc1ccc(Br)cc1", "Potency": "inconclusive: 14.1 µM [inhibitor, single point]"},
      {"smiles": "O=S(=O)(CCSc1nc2ccccc2o1)c1nc2ccccc2s1", "Potency": "inconclusive: 11.2 µM [inhibitor, partial curve, poor fit]"},
      {"smiles": "COc1ccc(CN2CCCC(N3CCN(c4cccc(Cl)c4)CC3)C2)cc1OC", "note": "(configuration not stated)", "Potency": "inactive"},
      {"smiles": "O=C(O)c1nn(-c2ccccc2)ccc1=O", "Potency": "inactive"},
      {"smiles": "O=C(O)c1cc(-c2cccs2)nc2cc3c(cc12)OCCO3", "Potency": "inconclusive: 10 µM [inhibitor, partial curve, poor fit]"},
      {"smiles": "Cc1ccc(S(=O)(=O)N2[C@@H](c3ccccc3)C(C(=O)O)=CC[C@H]2c2cccs2)cc1", "Potency": "inactive"},
      {"smiles": "O=c1[nH][nH]cc1C=Nc1cc(Cl)ccc1O", "Potency": "inconclusive: 5.01 µM [inhibitor, partial curve, poor fit]"},
      {"smiles": "COc1cc2sc(-c3ccccc3OC)c(-c3ccc(OCCN4CCCCC4)cc3)c2cc1OC", "Potency": "inconclusive: 7.08 µM [inhibitor, partial curve, poor fit]"},
      {"smiles": "CCN1/C(=C\\c2ccc3ccccc3[n+]2CC)Sc2cc(C)ccc21", "Potency": "active: 3.55 µM"},
      {"smiles": "O=C(NCCCN1CCC(Cc2ccccc2)CC1)c1ccc2nc(N3CCOCC3)sc2c1", "Potency": "inconclusive: 5.01 µM [inhibitor, partial curve, poor fit]"},
      {"smiles": "Cc1ccc2oc(C(=O)N(C)Cc3ccc(C)o3)c(C)c2c1", "Potency": "inconclusive: 10 µM [inhibitor, partial curve, poor fit]"},
      {"smiles": "CC1(C)N=C(N)N=C(N)N1c1ccc(OCCCOc2ccccc2)c(Cl)c1", "Potency": "inconclusive: 3.98 µM [inhibitor, partial curve, poor fit]"},
      {"smiles": "COc1cc(/C=N/N=C(N)N)ccc1OCc1ccc(Cl)cc1", "Potency": "inconclusive: 5.62 µM [inhibitor, partial curve, poor fit]"},
      {"smiles": "CC(C)n1cnc2c(NCc3ccccc3)cc(OCC3CCN(C)CC3)cc21", "Potency": "inconclusive: 7.94 µM [inhibitor, partial curve]"},
      {"smiles": "CCOC(=O)C1=C(C)N=C2SC(C(=O)OC)=CC(=O)N2C1c1ccc(F)cc1", "note": "(configuration not stated)", "Potency": "inconclusive: 3.16 µM [inhibitor, partial curve]"},
      {"smiles": "CCN(c1ccccc1)S(=O)(=O)c1ccc(C(=O)NCC(=O)Nc2ccc(F)c(F)c2F)cc1", "Potency": "inconclusive: 11.2 µM [inhibitor, partial curve, poor fit]"},
      {"smiles": "O=C1OCCN1C(=O)[C@H]1[C@H](c2ccc(Cl)cc2)C(c2ccc(F)cc2)=NN1c1ccccc1", "Potency": "inactive"},
      {"smiles": "O=C(COc1ccccc1)NCC(c1ccco1)N1CCN(c2ccccc2F)CC1", "note": "(configuration not stated)", "Potency": "inconclusive: 11.2 µM [inhibitor, partial curve, poor fit]"},
      {"smiles": "CSc1ncccc1C(=O)N1CCN(S(=O)(=O)c2ccc3c(c2)OCCO3)CC1", "Potency": "inconclusive: 3.55 µM [inhibitor, partial curve, poor fit]"},
      {"smiles": "CCC(C(=O)NC1CCCCC1)n1c(SCc2ccccc2F)nc2ccncc21", "note": "(configuration not stated)", "Potency": "inconclusive: 11.2 µM [inhibitor, partial curve, poor fit]"},
      {"smiles": "O=C(c1ccccc1)c1ccc2nc(N3CCCCC3)c3nncn3c2c1", "Potency": "inconclusive: 22.4 µM [inhibitor, single point]"},
      {"smiles": "Cc1ccccc1Cn1c(CN2CCc3ccccc3C2)nc2c1c(=O)n(C)c(=O)n2C", "Potency": "inconclusive: 10 µM [inhibitor, single point]"},
      {"smiles": "CC(NC(=O)c1cc(S(=O)(=O)N2CCOCC2)ccc1F)c1ccc(-n2ccnc2)cc1", "note": "(configuration not stated)", "Potency": "inconclusive: 0.501 µM [inhibitor, partial curve, poor fit]"},
      {"smiles": "CC(C)C[C@H]1CN([C@@H](CC(C)C)CN2CCCC2CN2C(=S)NC[C@@H]2Cc2ccc(O)cc2)C(=S)N1CCc1ccccc1", "note": "(some centres not stated)", "Potency": "inconclusive: 28.2 µM [inhibitor, single point]"},
      {"smiles": "COc1cc2sc(-c3ccccc3OC)c(-c3ccc(O)cc3)c2cc1OC", "Potency": "inconclusive: 28.2 µM [inhibitor, single point]"},
      {"smiles": "CC[C@]12c3[nH]c4ccccc4c3CCN1C(=O)C(CC(=O)NC/C=C(\\C)CCC=C(C)C)C[C@@H]2C(=O)N1CCN(C(=O)c2ccco2)CC1", "note": "(some centres not stated)", "Potency": "inconclusive: 28.2 µM [inhibitor, single point]"},
      {"smiles": "COc1ccc(C(C(=O)NC2CCCC2)N(Cc2ccccc2)C(=O)c2nsc(Cl)c2Cl)cc1", "note": "(configuration not stated)", "Potency": "inconclusive: 7.94 µM [inhibitor, single point]"},
      {"smiles": "CCN(CC)CCNC(=O)c1ccc(NC(=O)c2ccc(Cl)c(S(=O)(=O)N3CCCCCC3)c2)cc1", "Potency": "inactive"},
      {"smiles": "N#CCc1c(C#N)c(N)nc(N2CCCC2)c1C#N", "Potency": "inconclusive: 28.2 µM [inhibitor, single point]"},
      {"smiles": "Cc1ccc(-n2nnc3c(=O)n(CC(=O)NCc4ccco4)cnc32)cc1", "Potency": "inconclusive: 12.6 µM [inhibitor, single point]"},
      {"smiles": "Cc1cc(-c2ccc(C)c(S(=O)(=O)NCCCN3CCN(c4ccccc4F)CC3)c2)on1", "Potency": "inconclusive: 8.91 µM [inhibitor, single point]"},
      {"smiles": "Cc1cnc(NC(=O)Nc2ccc(Cl)cc2)s1", "Potency": "active: 2.24 µM"},
      {"smiles": "Cc1ccccc1NC(=O)COC(=O)c1cccc(S(=O)(=O)N2CCCCC2)c1", "Potency": "inconclusive: 6.31 µM [inhibitor, single point]"},
      {"smiles": "Cc1ccc(C(=O)N/N=C/c2cn(Cc3ccccc3)c3ccccc23)cn1", "Potency": "inconclusive: 10 µM [inhibitor, single point]"},
      {"smiles": "COc1ccccc1-n1cc(C(=O)NCC(=O)N2CCN(c3ccccn3)CC2)c2ccccc2c1=O", "Potency": "inconclusive: 4.47 µM [inhibitor, partial curve, poor fit]"},
      {"smiles": "CN(CC(=O)Nc1ccc(Cl)c(Cl)c1)Cc1nnc(-c2ccc(F)cc2)o1", "Potency": "inactive"},
      {"smiles": "CCOc1ccc(C(NC(=O)CC)c2c(O)ccc3ccccc23)cc1", "note": "(configuration not stated)", "Potency": "inconclusive: 8.91 µM [inhibitor, single point]"},
      {"smiles": "COc1cccc(-c2cc(=O)c3cc(NC(=O)c4ccccc4)ccc3[nH]2)c1", "Potency": "inconclusive: 2.51 µM [inhibitor, full curve, poor fit]"},
      {"smiles": "COc1ccccc1NC(=O)/C=C/c1ccc2c(c1)OCO2", "Potency": "inconclusive: 10 µM [inhibitor, partial curve, poor fit]"},
      {"smiles": "COc1cccc2c1O/C(=N\\O)C(C(=O)Nc1ccc(C)cc1)C2", "note": "(configuration not stated)", "Potency": "inconclusive: 6.31 µM [inhibitor, partial curve, poor fit]"},
      {"smiles": "CC(C)=CCC/C(C)=C/CNC(=O)C[C@H]1C[C@H](C(=O)N(C(C)C)C(C)C)[C@@]2(C)c3[nH]c4cc(CCC(=O)N(C)C)ccc4c3CCN2C1=O", "Potency": "inconclusive: 14.1 µM [inhibitor, single point]"},
      {"smiles": "CCOC(=O)C1CCN(C(=O)CS(=O)Cc2nc(-c3ccc(C)cc3)oc2C)CC1", "note": "(configuration not stated)", "Potency": "inconclusive: 11.2 µM [inhibitor, single point]"},
      {"smiles": "C=CCNC(=O)C(=O)NCCCN1CCOCC1", "Potency": "inconclusive: 1 µM [inhibitor, full curve, poor fit]"},
      {"smiles": "COc1ccc(N2CCOCC2)c(NC(=O)c2ccc(Br)o2)c1", "Potency": "inconclusive: 1 µM [inhibitor, full curve, poor fit]"},
      {"smiles": "COc1ccc2c(c1)sc(=NC(=O)CS(=O)(=O)c1ccc(F)cc1)n2C", "Potency": "inconclusive: 12.6 µM [inhibitor, single point]"},
      {"smiles": "CCc1ccc(Cn2nnc(C(=O)Nc3cccc(C)c3)c2N)cc1", "Potency": "inconclusive: 3.98 µM [inhibitor, partial curve, poor fit]"},
      {"smiles": "Cc1ccc(C(=O)C(C)OC(=O)c2cc(=O)[nH]c3ccccc23)cc1", "note": "(configuration not stated)", "Potency": "inactive"},
      {"smiles": "c1ccc(CN2CCN(c3nc4ccccc4s3)CC2)cc1", "Potency": "inactive"},
      {"smiles": "N#Cc1c(-c2ccc(Cl)cc2)cc(-c2ccccc2)nc1SCC(=O)O", "Potency": "inconclusive: 11.2 µM [inhibitor, partial curve, poor fit]"},
      {"smiles": "Clc1ccc(SCCN2CCNCC2)cc1", "Potency": "inconclusive: 12.6 µM [inhibitor, single point]"}
    ]}
  ]
}
